Measurements reported in the supplement of paper PMC12823440, “Inhibitors supercharge kinase turnover through native proteolytic circuits” (Nature, 2025).
This is one part of the list. The calls rarely recur for the same compound in another form.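 In K562 cells expressing nanoluciferase-fused kinases, luminescence was recorded at 4 h intervals between 2 and 18 h, normalized as percent of control with DMSO at 100% and a positive control at 0%. A significant (2 sigma) signal drop marks a time point as decreased. The authors' rule for a hit is not shown and takes in more than the number of time points.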

By UniProt entry, the sequences of proteins in these tests, tags left out. Where a name states a change or a piece, a line headed by the entry shows the natural chain unless it says otherwise.
UniProt P00519, whole entry: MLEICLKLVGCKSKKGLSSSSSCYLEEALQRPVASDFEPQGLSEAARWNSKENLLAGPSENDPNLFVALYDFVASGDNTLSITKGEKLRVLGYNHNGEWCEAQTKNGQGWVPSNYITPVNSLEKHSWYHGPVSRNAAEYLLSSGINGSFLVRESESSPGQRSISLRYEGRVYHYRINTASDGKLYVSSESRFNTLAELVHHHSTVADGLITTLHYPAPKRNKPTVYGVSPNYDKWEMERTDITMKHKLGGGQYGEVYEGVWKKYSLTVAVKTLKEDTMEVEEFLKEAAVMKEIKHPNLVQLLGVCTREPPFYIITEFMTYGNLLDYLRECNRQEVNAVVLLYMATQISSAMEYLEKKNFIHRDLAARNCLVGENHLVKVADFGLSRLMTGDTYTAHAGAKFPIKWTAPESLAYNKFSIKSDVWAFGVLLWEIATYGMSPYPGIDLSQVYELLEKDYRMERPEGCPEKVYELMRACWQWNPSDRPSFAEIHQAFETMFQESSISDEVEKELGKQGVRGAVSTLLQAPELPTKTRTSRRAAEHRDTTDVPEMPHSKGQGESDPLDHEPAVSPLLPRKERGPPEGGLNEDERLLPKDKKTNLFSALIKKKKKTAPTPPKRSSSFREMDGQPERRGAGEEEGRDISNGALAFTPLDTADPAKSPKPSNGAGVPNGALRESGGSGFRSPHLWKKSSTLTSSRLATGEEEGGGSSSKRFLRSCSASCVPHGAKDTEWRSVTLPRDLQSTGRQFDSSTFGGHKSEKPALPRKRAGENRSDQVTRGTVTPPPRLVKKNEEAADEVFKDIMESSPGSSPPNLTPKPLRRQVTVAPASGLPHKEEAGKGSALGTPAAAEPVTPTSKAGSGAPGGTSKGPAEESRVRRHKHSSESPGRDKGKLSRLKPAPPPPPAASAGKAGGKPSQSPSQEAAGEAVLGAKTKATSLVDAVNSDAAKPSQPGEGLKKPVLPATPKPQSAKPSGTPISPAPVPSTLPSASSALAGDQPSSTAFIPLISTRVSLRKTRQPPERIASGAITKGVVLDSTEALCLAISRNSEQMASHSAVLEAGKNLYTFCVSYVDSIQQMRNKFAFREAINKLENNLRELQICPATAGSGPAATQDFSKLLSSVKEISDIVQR
UniProt P31749: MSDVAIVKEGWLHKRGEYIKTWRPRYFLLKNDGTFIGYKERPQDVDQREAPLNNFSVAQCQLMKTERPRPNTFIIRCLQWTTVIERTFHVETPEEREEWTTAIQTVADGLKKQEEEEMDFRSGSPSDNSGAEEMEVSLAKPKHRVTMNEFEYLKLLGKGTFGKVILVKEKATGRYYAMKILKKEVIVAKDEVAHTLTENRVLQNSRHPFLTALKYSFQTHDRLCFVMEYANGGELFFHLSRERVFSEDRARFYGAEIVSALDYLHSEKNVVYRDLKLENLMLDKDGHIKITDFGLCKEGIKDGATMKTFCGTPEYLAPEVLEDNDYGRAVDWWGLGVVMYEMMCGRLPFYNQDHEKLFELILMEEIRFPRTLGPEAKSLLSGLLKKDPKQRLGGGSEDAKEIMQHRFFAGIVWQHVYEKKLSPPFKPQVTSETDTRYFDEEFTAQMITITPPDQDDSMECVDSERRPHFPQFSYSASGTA
UniProt O14965: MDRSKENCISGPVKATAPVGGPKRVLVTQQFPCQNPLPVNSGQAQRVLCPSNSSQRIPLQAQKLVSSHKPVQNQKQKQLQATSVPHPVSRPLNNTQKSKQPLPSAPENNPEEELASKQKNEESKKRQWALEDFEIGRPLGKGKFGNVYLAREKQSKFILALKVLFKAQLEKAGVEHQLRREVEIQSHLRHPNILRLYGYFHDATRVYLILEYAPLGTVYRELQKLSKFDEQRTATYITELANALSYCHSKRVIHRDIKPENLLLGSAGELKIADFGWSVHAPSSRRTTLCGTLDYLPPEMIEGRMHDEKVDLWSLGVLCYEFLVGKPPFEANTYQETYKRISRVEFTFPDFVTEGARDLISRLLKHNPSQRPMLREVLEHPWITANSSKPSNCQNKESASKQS
UniProt P51813: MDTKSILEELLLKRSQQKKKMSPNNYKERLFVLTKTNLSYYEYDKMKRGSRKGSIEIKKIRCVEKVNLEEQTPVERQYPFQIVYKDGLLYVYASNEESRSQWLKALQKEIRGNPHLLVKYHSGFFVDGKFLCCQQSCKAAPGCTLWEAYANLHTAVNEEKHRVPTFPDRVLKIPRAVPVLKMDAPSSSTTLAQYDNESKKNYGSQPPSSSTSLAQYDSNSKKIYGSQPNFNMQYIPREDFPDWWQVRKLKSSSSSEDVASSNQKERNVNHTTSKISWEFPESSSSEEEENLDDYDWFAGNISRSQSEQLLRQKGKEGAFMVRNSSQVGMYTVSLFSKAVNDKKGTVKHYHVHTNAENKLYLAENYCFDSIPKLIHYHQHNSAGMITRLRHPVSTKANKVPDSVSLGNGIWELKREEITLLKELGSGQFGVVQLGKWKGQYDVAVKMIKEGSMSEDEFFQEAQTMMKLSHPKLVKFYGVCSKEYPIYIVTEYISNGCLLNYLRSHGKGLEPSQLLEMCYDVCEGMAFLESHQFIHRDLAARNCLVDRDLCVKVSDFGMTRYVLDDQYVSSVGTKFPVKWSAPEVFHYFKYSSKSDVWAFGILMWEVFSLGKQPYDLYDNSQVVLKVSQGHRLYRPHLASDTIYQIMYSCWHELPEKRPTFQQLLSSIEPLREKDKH
UniProt P15056, whole entry, looked up: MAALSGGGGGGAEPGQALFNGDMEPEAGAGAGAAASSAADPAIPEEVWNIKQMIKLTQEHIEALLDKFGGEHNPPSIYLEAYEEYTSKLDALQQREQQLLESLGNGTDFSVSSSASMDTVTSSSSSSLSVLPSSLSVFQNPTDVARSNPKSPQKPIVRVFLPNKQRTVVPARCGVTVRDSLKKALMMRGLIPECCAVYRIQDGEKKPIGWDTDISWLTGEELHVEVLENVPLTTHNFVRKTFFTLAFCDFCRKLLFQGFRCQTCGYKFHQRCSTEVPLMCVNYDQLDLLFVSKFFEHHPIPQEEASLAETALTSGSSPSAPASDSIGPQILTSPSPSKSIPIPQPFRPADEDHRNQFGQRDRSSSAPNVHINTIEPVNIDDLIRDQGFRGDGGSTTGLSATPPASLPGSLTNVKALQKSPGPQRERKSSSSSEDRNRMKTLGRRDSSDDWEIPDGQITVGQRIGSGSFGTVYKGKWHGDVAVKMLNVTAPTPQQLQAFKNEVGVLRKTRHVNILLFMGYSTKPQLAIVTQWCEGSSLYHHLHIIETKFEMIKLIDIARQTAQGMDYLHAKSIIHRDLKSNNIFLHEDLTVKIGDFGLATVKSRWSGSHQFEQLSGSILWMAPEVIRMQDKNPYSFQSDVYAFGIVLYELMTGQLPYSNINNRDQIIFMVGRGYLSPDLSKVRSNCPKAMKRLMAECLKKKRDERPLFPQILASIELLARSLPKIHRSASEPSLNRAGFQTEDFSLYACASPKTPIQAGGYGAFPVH
UniProt Q06187: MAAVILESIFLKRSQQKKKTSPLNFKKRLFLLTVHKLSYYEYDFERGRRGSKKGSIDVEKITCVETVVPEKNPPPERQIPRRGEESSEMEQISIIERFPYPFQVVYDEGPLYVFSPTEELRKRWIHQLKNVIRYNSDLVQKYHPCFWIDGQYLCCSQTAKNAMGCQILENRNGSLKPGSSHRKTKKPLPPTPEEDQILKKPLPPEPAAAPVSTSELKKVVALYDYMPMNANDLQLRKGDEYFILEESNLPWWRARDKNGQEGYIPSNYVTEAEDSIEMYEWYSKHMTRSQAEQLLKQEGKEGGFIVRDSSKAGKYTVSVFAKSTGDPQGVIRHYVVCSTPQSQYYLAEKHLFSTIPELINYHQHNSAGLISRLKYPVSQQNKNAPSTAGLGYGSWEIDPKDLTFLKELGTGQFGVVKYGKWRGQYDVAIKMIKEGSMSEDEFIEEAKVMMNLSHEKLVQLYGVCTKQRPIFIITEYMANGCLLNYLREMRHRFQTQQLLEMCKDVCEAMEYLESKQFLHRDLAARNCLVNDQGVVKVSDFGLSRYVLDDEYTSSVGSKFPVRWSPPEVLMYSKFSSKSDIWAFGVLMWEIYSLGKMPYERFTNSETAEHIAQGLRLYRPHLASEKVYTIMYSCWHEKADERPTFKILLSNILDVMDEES
UniProt Q9UQM7, whole entry: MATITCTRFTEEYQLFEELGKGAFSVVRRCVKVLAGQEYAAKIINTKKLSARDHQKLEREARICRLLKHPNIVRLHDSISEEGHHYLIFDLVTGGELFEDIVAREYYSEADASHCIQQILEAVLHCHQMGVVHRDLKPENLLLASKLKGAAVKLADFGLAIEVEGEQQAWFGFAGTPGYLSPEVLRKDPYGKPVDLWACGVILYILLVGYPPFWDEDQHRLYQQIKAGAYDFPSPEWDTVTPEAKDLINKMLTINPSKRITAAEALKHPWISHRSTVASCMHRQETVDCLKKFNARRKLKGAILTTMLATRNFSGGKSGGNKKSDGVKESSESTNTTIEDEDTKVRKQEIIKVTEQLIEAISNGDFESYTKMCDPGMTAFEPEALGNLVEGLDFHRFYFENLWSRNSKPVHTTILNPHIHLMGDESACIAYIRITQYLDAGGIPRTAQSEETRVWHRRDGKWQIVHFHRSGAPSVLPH
UniProt Q13555: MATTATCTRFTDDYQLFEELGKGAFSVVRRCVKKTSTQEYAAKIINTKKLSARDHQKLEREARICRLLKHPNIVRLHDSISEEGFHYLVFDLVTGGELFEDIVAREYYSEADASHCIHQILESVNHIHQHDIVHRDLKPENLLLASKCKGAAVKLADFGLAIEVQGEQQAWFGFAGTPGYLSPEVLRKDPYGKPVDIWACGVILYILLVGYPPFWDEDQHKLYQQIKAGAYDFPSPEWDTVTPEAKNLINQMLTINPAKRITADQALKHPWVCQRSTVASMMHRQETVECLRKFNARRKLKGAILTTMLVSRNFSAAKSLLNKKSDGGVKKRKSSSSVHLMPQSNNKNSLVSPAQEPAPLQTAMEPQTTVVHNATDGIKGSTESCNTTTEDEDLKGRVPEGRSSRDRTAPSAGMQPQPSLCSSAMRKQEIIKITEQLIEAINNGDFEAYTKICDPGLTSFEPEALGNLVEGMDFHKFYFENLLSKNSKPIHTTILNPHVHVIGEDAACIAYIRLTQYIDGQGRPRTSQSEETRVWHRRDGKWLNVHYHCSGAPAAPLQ
UniProt Q00526: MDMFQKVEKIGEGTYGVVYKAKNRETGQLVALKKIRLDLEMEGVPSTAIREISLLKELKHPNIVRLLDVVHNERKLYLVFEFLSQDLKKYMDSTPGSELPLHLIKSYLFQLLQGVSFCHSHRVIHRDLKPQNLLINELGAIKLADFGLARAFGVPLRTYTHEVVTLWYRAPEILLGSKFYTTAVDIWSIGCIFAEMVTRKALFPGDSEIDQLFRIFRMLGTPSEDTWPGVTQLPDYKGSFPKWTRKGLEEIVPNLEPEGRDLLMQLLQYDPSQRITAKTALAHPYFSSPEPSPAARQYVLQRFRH
UniProt P11802: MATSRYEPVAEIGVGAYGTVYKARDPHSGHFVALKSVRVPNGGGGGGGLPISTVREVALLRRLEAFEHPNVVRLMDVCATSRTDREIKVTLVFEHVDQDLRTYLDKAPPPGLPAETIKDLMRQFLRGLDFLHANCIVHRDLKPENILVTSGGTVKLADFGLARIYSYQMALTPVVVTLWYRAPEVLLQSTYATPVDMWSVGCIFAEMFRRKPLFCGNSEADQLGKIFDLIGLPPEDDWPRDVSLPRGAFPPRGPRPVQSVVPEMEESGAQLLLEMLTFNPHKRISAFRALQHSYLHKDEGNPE
UniProt Q00535, whole entry, looked up: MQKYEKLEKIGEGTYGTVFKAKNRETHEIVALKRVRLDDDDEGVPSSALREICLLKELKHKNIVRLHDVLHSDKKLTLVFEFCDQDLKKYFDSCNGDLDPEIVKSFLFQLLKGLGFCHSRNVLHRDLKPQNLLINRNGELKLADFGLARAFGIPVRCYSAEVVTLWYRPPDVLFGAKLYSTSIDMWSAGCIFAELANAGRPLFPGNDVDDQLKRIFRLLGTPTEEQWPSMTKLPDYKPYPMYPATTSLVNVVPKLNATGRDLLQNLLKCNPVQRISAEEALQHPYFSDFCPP
UniProt Q00534, whole entry: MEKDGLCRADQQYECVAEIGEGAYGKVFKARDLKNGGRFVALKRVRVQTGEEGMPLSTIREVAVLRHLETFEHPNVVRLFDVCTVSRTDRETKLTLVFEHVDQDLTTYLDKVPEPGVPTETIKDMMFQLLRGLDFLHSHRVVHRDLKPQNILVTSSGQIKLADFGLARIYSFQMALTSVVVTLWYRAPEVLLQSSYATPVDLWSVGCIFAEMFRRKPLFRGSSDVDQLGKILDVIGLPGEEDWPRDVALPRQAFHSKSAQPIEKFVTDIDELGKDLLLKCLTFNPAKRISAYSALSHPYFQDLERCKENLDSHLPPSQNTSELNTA

Legend:
Test in all cases: kinase-Nluc reporter destabilization hit call (1 = scored as downregulated) (binary); higher = compound decreases kinase abundance
Details in all cases: K562; 2-18 h
[1] = molecular target: ABL1 (UniProt P00519)
[2] = molecular target: AKT1 (UniProt P31749)
[3] = molecular target: ALK (UniProt Q9UM73)
[4] = molecular target: ARAF (UniProt P10398)
[5] = molecular target: AURKA (UniProt O14965)
[6] = molecular target: AURKB (UniProt Q96GD4)
[7] = molecular target: AURKC (UniProt Q9UQB9)
[8] = molecular target: BLK (UniProt P51451)
[9] = molecular target: BMX (UniProt P51813)
[10] = molecular target: BRAF (UniProt P15056)
[11] = system: BRAF_V600E
[12] = molecular target: BTK (UniProt Q06187)
[13] = molecular target: CAMK2A (UniProt Q9UQM7)
[14] = molecular target: CAMK2G (UniProt Q13555)
[15] = molecular target: CDK10 (UniProt Q15131)
[16] = molecular target: CDK2 (UniProt P24941)
[17] = molecular target: CDK3 (UniProt Q00526)
[18] = molecular target: CDK4 (UniProt P11802)
[19] = molecular target: CDK5 (UniProt Q00535)
[20] = molecular target: CDK6 (UniProt Q00534)

Structure (SMILES)	kinase-Nluc reporter destabilization hit call [1]	kinase-Nluc reporter destabilization hit call [2]	kinase-Nluc reporter destabilization hit call [3]	kinase-Nluc reporter destabilization hit call [4]	kinase-Nluc reporter destabilization hit call [5]	kinase-Nluc reporter destabilization hit call [6]	kinase-Nluc reporter destabilization hit call [7]	kinase-Nluc reporter destabilization hit call [8]	kinase-Nluc reporter destabilization hit call [9]	kinase-Nluc reporter destabilization hit call [10]	kinase-Nluc reporter destabilization hit call [11]	kinase-Nluc reporter destabilization hit call [12]	kinase-Nluc reporter destabilization hit call [13]	kinase-Nluc reporter destabilization hit call [14]	kinase-Nluc reporter destabilization hit call [15]	kinase-Nluc reporter destabilization hit call [16]	kinase-Nluc reporter destabilization hit call [17]	kinase-Nluc reporter destabilization hit call [18]	kinase-Nluc reporter destabilization hit call [19]	kinase-Nluc reporter destabilization hit call [20]
Cc1cc([C@@H](C)Nc2ccccc2C(=O)O)c2nc(N3CCOCC3)cc(=O)n2c1 (10 µM)	inactive: 0	inactive: 0	inactive: 0	inactive: 0	inactive: 0	inactive: 0	inactive: 0	inactive: 0	inactive: 0	inactive: 0	inactive: 0	inactive: 0	inactive: 0	inactive: 0	inactive: 0	inactive: 0	inactive: 0	inactive: 0	inactive: 0	inactive: 0
COc1ccc(Br)cc1NC(=O)Nc1cccc2c1ccn2Cc1ccnc(N)c1 (2.5 µM)	inactive: 0	inactive: 0	inactive: 0	inactive: 0	inactive: 0	inactive: 0	inactive: 0	inactive: 0	inactive: 0	inactive: 0	inactive: 0	inactive: 0	inactive: 0	inactive: 0	inactive: 0	inactive: 0	inactive: 0	inactive: 0	inactive: 0	inactive: 0
CCN1CCN(Cc2cnc(Nc3cc(-c4cc(F)c5nc(C)n(C(C)C)c5c4)c(F)cn3)nc2)CC1 (10 µM)	inactive: 0	inactive: 0	inactive: 0	inactive: 0	inactive: 0	inactive: 0	inactive: 0	inactive: 0	inactive: 0	inactive: 0	inactive: 0	inactive: 0	inactive: 0	inactive: 0	inactive: 0	inactive: 0	inactive: 0	inactive: 0	inactive: 0	inactive: 0
c1nn(C2CCOCC2)cc1Nc1ncc2nnn(-c3ccc4cn[nH]c4c3)c2n1 (10 µM)	inactive: 0	inactive: 0	inactive: 0	inactive: 0	inactive: 0	inactive: 0	inactive: 0	inactive: 0	inactive: 0	inactive: 0	inactive: 0	inactive: 0	inactive: 0	inactive: 0	inactive: 0	inactive: 0	inactive: 0	inactive: 0	inactive: 0	inactive: 0
COC(=O)Nc1ccc(-c2nc(N3CCOCC3)c3cnn(C4CCN(Cc5cccnc5)CC4)c3n2)cc1 (10 µM)	inactive: 0	inactive: 0	inactive: 0	inactive: 0	inactive: 0	inactive: 0	inactive: 0	inactive: 0	inactive: 0	inactive: 0	inactive: 0	inactive: 0	inactive: 0	inactive: 0	inactive: 0	inactive: 0	inactive: 0	inactive: 0	inactive: 0	inactive: 0
N#Cc1ccc2ncnc(NCCc3ccccc3)c2c1 [Senexin A] (10 µM)	inactive: 0	inactive: 0	inactive: 0	inactive: 0	inactive: 0	inactive: 0	inactive: 0	inactive: 0	inactive: 0	inactive: 0	inactive: 0	inactive: 0	inactive: 0	inactive: 0	inactive: 0	inactive: 0	inactive: 0	inactive: 0	inactive: 0	inactive: 0
O=C1Nc2ccc(I)cc2/C1=C/c1cc(Br)c(O)c(Br)c1 (10 µM)	inactive: 0	inactive: 0	inactive: 0	inactive: 0	inactive: 0	inactive: 0	inactive: 0	inactive: 0	inactive: 0	active: 1	inactive: 0	inactive: 0	inactive: 0	inactive: 0	inactive: 0	inactive: 0	inactive: 0	inactive: 0	inactive: 0	inactive: 0
COc1c(O)cc2oc(-c3ccc(O)cc3)cc(=O)c2c1O [Hispidulin] (10 µM)	inactive: 0	inactive: 0	inactive: 0	inactive: 0	inactive: 0	inactive: 0	inactive: 0	inactive: 0	inactive: 0	inactive: 0	inactive: 0	inactive: 0	inactive: 0	inactive: 0	inactive: 0	inactive: 0	inactive: 0	inactive: 0	inactive: 0	inactive: 0
O=C1OC(/C=C/c2ccccc2)=NC/1=C\c1cccnc1 (10 µM)	inactive: 0	inactive: 0	inactive: 0	inactive: 0	inactive: 0	inactive: 0	inactive: 0	inactive: 0	inactive: 0	inactive: 0	inactive: 0	inactive: 0	inactive: 0	inactive: 0	inactive: 0	inactive: 0	inactive: 0	inactive: 0	inactive: 0	inactive: 0

2 compounds from above with just kinase-Nluc reporter destabilization hit call [10] and kinase-Nluc reporter destabilization hit call [2].
Structure (SMILES)	kinase-Nluc reporter destabilization hit call [10]	kinase-Nluc reporter destabilization hit call [2]
N#Cc1ccc2ncnc(NCCc3ccccc3)c2c1 [Senexin A] (10 µM)	inactive: 0	inactive: 0
O=C1Nc2ccc(I)cc2/C1=C/c1cc(Br)c(O)c(Br)c1 (10 µM)	active: 1	inactive: 0
